No constants are given. Whether binding was seen depends on the method and setting. In cells and extracts the contact can be indirect. A result given as binding can be weak or reduced; the word gives no strength. Tags and fused reporters may be left off the sequences shown.
Assays:
[1] = molecular target: T1, PAD4 (split luciferase construct) (Arabidopsis thaliana) (UniProt Q9S745); experiment: split reporter; split luciferase complementation (SLC) assay in N. benthamiana; Nluc and Cluc fusions co-expressed
T1 sequence: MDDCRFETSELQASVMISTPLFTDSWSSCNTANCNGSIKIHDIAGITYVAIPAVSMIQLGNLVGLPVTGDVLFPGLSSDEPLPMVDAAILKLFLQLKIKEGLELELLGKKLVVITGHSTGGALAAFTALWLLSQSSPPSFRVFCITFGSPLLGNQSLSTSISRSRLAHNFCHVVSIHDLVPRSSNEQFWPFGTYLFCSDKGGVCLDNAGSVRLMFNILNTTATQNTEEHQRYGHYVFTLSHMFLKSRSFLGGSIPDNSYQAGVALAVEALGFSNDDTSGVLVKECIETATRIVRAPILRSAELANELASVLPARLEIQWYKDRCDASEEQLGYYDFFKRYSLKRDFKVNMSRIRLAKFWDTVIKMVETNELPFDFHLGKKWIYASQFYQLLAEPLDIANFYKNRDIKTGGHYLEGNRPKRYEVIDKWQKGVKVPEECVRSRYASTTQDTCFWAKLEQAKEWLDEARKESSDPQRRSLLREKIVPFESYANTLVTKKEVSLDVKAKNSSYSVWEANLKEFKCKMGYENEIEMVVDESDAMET

[2] = molecular target: T2, EDS1-Cluc (Arabidopsis thaliana) (UniProt Q9SU72); experiment: as above
T2 sequence: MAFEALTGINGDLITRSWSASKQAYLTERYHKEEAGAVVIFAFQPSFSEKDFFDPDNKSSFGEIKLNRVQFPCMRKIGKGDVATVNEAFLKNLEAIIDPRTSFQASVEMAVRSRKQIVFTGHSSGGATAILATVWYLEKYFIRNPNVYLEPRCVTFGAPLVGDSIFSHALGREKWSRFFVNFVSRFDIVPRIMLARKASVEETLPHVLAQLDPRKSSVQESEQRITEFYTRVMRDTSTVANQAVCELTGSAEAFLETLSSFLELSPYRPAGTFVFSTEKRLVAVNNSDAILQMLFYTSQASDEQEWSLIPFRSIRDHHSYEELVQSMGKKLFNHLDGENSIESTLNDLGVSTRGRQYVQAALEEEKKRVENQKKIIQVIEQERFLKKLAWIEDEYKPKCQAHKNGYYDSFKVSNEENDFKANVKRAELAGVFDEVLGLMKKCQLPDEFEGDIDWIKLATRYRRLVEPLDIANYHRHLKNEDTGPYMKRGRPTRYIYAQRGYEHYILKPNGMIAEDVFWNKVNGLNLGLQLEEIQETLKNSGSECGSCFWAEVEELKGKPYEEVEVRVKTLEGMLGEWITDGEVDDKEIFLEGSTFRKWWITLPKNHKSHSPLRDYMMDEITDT

[3] = molecular target: T2, EDS1-Cluc (Arabidopsis thaliana); experiment: split reporter; split luciferase complementation with EDS1-Cluc and ADR1-L1-Nluc co-expressed, with or without addition of HA-TurboID-ADR1(1C) (Supplemental Figure S9, B and C)

binding [1]: binds | binding [2]: binds | binding [3]: binds
Substance: ADR1-L1-Nluc (Arabidopsis thaliana) (receptor)
